{"source": "patent US20210261583A1", "about": "“Synthetic Cytotoxic Molecules, Drugs, Methods of Their Synthesis and Methods of Treatment” (The Regents of the University of California, priority 2018, published 2021)", "tested_on": "cancer cells", "test": "Cytotoxicity (IC50)", "conditions": "compared to 16", "note": "Some entries share one result that the patent states for a list of compounds."}
{"smiles": "CCCCCCCCc1ccc(C(=O)[C@H]2C[C@H](O)CN2)cc1.Cl", "note": "[Compound 21, (2R,4S)-4-Hydroxy-2-(4-octylbenzoyl)pyrrolidin-1-ium chloride]", "values": [{"measurement": "decrease in cytotoxicity", "value": "5-10 fold"}]}
{"smiles": "CCCCCCCCc1ccc(C(=O)[C@@H]2C[C@@H](O)CN2)cc1.Cl", "note": "[Compound 20, (2S,4R)-4-Hydroxy-2-(4-octylbenzoyl)pyrrolidin-1-ium chloride]", "values": [{"measurement": "decrease in cytotoxicity", "value": "5-10 fold"}]}
